Some of the results follow.
Compound: CC[C@H](C)N1C=C(C2=C(C=C(C=C21)C3=CN=C(C=C3)N4CCNCC4)C(=O)NCC5=C(C=C(NC5=O)C)C)C
Experiment: log2 fold change, soluble protein after heating vs DMSO (PISA); higher = thermal stabilisation; K562 cells, 10 uM, 30 min; active = over 0.2 and 3.5 SD of the protein, either way, in both replicates (recomputed)
Method in brief: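 Values are thermal stability changes relative to control samples and are taken from duplicates. They are stated as log2 fold changes. Before quantification by TMTpro 16plex LC-MS/MS with equalised channel sums, K562 cells at 2×10^6 cells/mL were treated with 10 μM compound for 30 min, heated in aliquots for 3 min across 48°C-58°C, pooled, extracted in PBS with 0.5% NP-40 at 4°C, and centrifuged at 21,000xg for 90 min to give the soluble supernatant.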

Chains of the proteins cited; added tags and fusions are not shown. Lines headed by an entry give the natural chain unless they say otherwise; changes in a name come on top.
UniProt P03886, whole entry, looked up: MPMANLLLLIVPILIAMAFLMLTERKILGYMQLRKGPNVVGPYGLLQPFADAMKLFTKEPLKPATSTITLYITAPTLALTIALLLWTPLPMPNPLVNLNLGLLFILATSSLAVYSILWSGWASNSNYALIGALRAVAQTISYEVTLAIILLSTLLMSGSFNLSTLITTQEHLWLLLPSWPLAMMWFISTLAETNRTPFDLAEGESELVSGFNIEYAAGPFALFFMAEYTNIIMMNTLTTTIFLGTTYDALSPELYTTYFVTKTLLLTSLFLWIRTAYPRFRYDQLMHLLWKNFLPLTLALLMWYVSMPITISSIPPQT
UniProt Q8IUG5: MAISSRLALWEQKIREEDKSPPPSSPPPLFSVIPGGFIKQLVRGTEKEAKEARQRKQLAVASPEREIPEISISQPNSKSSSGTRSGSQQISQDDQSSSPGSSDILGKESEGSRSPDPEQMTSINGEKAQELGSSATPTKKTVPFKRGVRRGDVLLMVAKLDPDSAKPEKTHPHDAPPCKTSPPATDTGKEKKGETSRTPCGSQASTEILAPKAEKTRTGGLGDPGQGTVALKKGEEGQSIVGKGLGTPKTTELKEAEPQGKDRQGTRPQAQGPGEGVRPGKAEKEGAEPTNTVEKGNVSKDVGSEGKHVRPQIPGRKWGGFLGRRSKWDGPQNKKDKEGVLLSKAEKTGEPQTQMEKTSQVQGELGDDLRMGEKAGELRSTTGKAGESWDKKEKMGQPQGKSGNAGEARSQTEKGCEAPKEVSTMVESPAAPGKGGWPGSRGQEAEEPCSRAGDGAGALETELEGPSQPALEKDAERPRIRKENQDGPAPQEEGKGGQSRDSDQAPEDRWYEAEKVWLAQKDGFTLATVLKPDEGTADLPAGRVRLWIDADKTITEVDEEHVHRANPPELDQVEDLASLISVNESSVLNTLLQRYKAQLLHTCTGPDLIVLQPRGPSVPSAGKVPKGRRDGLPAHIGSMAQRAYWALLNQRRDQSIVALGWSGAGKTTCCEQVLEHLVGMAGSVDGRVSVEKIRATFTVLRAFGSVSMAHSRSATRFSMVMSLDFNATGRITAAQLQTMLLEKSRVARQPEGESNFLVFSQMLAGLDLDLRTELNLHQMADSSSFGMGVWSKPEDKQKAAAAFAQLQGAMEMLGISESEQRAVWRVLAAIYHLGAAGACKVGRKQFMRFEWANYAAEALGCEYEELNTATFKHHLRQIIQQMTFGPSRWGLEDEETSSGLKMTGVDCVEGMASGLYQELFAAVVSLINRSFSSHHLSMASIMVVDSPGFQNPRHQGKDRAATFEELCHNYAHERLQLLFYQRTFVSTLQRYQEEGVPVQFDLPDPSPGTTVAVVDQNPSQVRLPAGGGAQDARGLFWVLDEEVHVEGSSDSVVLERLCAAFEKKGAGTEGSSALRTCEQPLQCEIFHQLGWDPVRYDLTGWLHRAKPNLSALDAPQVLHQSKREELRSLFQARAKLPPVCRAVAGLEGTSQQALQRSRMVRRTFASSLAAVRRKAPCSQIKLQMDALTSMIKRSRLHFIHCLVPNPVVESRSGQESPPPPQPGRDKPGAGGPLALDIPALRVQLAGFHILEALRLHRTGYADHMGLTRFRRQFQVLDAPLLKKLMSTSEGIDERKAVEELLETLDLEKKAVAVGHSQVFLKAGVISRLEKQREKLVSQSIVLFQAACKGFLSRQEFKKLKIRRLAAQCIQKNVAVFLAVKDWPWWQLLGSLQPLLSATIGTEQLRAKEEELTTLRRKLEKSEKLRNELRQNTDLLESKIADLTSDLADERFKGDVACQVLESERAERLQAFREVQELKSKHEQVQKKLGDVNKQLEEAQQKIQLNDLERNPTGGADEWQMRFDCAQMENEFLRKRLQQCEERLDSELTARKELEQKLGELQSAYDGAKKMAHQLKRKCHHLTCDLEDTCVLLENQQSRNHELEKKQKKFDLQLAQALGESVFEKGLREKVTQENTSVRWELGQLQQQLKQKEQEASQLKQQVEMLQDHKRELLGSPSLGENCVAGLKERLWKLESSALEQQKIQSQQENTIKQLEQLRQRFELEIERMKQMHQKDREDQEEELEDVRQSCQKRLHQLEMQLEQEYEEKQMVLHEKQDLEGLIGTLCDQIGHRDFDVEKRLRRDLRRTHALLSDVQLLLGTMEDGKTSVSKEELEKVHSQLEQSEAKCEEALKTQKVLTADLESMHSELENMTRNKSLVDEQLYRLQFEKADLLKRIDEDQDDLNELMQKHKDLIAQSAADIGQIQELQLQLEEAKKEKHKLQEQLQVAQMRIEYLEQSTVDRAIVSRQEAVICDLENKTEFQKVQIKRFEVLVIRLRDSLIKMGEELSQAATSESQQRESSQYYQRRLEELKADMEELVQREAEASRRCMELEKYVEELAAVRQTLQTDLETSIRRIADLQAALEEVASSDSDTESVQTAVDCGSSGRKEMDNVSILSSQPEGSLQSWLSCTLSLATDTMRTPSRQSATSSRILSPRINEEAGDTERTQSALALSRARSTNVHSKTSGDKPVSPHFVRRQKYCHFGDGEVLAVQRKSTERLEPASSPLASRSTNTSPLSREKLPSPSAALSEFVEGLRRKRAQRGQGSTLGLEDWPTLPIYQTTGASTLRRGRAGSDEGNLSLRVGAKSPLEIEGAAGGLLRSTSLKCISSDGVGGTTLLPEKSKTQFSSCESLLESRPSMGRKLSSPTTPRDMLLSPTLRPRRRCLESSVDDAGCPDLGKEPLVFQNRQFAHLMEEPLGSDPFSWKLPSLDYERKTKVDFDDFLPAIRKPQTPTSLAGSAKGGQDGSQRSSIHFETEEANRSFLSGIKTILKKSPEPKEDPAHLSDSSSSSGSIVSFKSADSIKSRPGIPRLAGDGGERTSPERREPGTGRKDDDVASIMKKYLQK
UniProt P11586, whole entry, looked up: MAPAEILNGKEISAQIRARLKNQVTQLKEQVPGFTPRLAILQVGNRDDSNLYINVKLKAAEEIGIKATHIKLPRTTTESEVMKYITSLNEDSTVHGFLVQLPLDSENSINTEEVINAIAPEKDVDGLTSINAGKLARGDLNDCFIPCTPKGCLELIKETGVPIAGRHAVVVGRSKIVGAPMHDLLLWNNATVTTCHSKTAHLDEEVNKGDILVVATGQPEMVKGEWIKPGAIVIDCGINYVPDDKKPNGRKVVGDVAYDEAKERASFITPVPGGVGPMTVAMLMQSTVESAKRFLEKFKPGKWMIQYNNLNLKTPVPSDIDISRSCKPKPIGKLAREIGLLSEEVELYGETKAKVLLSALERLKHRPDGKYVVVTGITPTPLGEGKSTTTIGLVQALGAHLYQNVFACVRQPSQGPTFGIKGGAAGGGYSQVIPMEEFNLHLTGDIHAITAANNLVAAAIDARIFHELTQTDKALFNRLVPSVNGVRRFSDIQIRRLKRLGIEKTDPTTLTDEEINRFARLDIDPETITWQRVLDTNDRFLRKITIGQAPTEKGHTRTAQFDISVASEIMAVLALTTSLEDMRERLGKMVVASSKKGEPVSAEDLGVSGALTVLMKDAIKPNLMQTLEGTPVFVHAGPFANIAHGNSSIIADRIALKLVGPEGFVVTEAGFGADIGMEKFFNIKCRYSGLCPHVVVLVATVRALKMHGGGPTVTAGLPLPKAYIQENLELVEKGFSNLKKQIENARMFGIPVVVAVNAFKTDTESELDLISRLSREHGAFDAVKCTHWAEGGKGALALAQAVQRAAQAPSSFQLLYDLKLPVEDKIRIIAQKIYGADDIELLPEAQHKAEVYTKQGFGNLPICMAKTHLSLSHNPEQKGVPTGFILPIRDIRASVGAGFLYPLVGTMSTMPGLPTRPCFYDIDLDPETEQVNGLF
UniProt Q9NXD2: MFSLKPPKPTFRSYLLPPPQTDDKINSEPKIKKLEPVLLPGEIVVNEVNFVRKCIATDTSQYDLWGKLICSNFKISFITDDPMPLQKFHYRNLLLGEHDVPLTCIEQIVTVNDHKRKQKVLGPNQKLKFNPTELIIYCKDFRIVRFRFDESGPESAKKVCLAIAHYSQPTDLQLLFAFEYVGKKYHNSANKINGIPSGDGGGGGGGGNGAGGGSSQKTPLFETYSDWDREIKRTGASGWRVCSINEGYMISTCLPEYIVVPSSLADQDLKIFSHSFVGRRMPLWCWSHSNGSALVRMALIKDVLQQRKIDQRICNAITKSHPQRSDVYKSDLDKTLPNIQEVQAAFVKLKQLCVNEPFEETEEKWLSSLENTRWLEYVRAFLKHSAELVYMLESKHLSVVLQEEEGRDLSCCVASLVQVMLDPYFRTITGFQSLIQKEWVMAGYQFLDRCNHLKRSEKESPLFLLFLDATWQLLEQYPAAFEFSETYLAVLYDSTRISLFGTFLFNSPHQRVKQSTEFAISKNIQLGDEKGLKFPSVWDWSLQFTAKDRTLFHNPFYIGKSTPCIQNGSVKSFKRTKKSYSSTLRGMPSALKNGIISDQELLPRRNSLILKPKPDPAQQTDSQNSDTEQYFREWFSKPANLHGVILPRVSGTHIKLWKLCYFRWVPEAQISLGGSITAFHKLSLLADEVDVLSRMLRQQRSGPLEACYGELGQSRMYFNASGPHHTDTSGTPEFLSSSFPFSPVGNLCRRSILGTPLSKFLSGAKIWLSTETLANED
UniProt Q99836, whole entry, looked up: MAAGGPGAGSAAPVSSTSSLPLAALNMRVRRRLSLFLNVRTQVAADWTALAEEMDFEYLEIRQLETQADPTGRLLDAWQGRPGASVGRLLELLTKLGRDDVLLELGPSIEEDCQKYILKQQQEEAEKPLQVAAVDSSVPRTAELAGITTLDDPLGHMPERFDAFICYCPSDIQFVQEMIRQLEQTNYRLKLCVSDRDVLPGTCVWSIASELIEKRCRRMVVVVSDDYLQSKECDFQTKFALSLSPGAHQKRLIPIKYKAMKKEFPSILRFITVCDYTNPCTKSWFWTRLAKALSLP
UniProt P13640: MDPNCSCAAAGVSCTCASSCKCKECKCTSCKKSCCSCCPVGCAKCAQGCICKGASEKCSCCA
UniProt Q9H019: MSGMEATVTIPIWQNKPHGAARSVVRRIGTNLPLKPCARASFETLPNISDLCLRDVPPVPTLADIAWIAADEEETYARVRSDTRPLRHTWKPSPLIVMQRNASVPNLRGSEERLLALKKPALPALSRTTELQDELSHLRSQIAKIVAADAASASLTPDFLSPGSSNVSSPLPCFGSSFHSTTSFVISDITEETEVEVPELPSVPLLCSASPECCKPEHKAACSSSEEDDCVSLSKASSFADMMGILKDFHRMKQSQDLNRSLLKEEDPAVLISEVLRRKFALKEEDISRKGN
UniProt Q7Z6M4: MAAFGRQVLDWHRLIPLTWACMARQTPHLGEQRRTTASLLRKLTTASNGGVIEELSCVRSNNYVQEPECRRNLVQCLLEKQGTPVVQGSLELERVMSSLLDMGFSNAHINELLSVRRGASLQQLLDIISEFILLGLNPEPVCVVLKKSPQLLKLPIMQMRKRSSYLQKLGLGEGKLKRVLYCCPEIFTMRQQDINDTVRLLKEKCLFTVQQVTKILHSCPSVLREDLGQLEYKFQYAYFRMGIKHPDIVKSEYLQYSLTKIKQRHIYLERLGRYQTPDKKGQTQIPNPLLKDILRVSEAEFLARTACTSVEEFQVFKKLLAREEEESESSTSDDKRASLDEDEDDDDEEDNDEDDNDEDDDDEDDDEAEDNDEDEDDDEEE
UniProt Q9Y2Z2: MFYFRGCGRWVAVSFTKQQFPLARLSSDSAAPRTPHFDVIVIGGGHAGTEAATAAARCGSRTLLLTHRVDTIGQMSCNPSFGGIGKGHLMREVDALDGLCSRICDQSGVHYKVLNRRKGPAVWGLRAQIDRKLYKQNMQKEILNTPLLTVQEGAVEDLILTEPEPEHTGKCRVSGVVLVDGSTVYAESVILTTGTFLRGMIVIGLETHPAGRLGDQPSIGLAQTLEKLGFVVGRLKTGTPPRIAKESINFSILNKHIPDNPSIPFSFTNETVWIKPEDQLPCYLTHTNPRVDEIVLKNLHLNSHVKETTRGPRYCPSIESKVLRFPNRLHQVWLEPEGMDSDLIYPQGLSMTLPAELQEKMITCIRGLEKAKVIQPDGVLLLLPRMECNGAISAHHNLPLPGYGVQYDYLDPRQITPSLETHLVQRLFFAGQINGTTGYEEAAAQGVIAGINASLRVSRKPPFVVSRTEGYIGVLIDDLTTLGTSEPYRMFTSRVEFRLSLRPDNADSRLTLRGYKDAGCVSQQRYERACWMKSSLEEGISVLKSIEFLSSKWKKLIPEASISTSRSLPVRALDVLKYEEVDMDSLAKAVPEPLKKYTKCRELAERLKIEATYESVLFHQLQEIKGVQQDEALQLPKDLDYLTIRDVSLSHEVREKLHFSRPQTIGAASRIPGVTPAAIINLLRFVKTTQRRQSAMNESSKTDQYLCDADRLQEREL

log2 fold change, inactive:
MUC7 (UniProt Q8TAX7) 0.071
MT-ND1 (UniProt P03886) 0.035
MRPS15 (UniProt P82914) 0.163
MTCH2 (UniProt E9PIE4) 0.006
MYO18B isoform 3 (UniProt Q8IUG5) -0.112
MYH16 (UniProt Q9H6N6) 0.156
MRPS14 (UniProt O60783) -0.085
MTHFD1, A0A384N5Y3 0.065
MTHFD1 (UniProt P11586) 0.035
MYLK (UniProt Q15746) -0.172
MTMR10 (UniProt Q9NXD2) -0.039
MTMR14 (UniProt Q8NCE2) 0.037
MT-CO1 (UniProt P00395) 0.02
MYD88 isoform 6 (UniProt Q99836) 0.084
MT1G (UniProt P13640) 0.031
MTFR1L (UniProt Q9H019) 0.036
MRPS16 (UniProt Q9Y3D3) 0.018
MRPS21 (UniProt P82921) 0.063
MTERF4 (UniProt Q7Z6M4) -0.006
MTO1 isoform 6 (UniProt Q9Y2Z2) 0

Looked up one by one from the list above:
log2 fold change, inactive:
MRPS14 (UniProt O60783) -0.085
MRPS21 (UniProt P82921) 0.063
